PubChem BioAssay AID1224828, NIAID | 2016

- Assay: 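Regulators linking TLR4 signalling to p65 nuclear translocation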 (primary screen)
- Cell system: mouse RAW264.7 G9 macrophage reporter cells (GFP-p65, Tnf promoter-mCherry)
- Reagents: siRNA pool against mouse genes, 100 nM
- Duration: 2 days siRNA transfection, then 40 min LPS before fixation
- Treatment: LPS (Salmonella minnesota R595) at 10 ng/ml
- Read-out: 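Microscopy ratio of nuclear to perinuclear-ring GFP-p65 signal, scaled to the plate median; gene score is the average of two replicate robust z-scores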
- Reading the numbers: p65 translocation robust z-score: higher = more nuclear NF-kappaB p65 after LPS than the plate median; nuclear/cytoplasmic p65 ratio: higher = more nuclear NF-kappaB p65
- Active means: 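Active if robust z is above 3.3 (negative regulators) or below -1.56, the Tlr4 control median (positive regulators); activity score 50 or more; control wells not called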
- Meaning of the calls: active = hit (p65 shift raised or lowered); inactive = no clear change
The whole screen tested about 17,000 reagents; shown is a part drawn at random. Over the whole deposit, 762 (4.5%) got an active call. 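Active calls include both raised and lowered p65 entry, mostly lowered; wells with fewer than 50 cells lack a z-score.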 Raw values are not corrected between plates.

gene,p65 translocation robust z-score,"nuclear/cytoplasmic p65 ratio, rep 1","nuclear/cytoplasmic p65 ratio, rep 2",low cell count flag,Call
A730049H05Rik,1.04,1.6,1.66,enough cells to score,inactive
Cd109,0.17,1.64,1.78,enough cells to score,inactive
Mrpl17,0.42,1.85,1.66,enough cells to score,inactive
Idh2,-1.33,1.39,1.22,enough cells to score,inactive
Polr1e,-0.22,1.38,1.24,enough cells to score,inactive
Cnga2,0.5,1.6,1.94,enough cells to score,inactive
Pdpn,-1.17,1.45,1.23,enough cells to score,inactive
Tlr7,0.12,1.5,1.57,enough cells to score,inactive
Rad1,0.14,1.41,1.66,enough cells to score,inactive
Or5b108,-0.72,1.5,1.33,enough cells to score,inactive
Mri1,1.98,1.3,1.73,enough cells to score,inactive
Tex11,0.44,1.79,1.24,enough cells to score,inactive
Slc13a3,0.44,1.41,1.35,enough cells to score,inactive
Ackr3,0.46,1.48,1.44,enough cells to score,inactive
Krt35,0,1.44,1.41,enough cells to score,inactive
Ky,0.61,1.52,1.62,enough cells to score,inactive
Cib1,-0.65,1.61,1.3,enough cells to score,inactive
Mthfd1l,0.29,1.65,1.49,enough cells to score,inactive
Nup54,,1.31,1.17,fewer than 50 cells per well; well left out of scoring,inactive
Psmd11,,1.3,0,fewer than 50 cells per well; well left out of scoring,inactive

3 consecutive entries already listed:
gene,p65 translocation robust z-score,"nuclear/cytoplasmic p65 ratio, rep 1","nuclear/cytoplasmic p65 ratio, rep 2",low cell count flag,Call
Tlr7,0.12,1.5,1.57,enough cells to score,inactive
Rad1,0.14,1.41,1.66,enough cells to score,inactive
Or5b108,-0.72,1.5,1.33,enough cells to score,inactive

Next entries follow:
gene,p65 translocation robust z-score,"nuclear/cytoplasmic p65 ratio, rep 1","nuclear/cytoplasmic p65 ratio, rep 2",low cell count flag,Call
Hnrnpr,0.26,1.77,1.5,enough cells to score,inactive
Rpp40,0.55,1.31,1.28,enough cells to score,inactive
Fpr1,,1.34,1.39,fewer than 50 cells per well; well left out of scoring,inactive
B430209F14Rik,1.48,1.86,2.02,enough cells to score,inactive
Hoxb7,-0.15,1.39,1.38,enough cells to score,inactive
Six2,-1.8,1.42,1.17,enough cells to score,active
Napsa,1.87,1.53,1.85,enough cells to score,inactive
Galnt17,1.57,1.6,1.45,enough cells to score,inactive
Esyt2,-1.21,1.36,1.62,enough cells to score,inactive
Or4p18,-2.13,1.34,1.26,enough cells to score,active
Myl4,-0.62,1.36,1.27,enough cells to score,inactive
Rasgrf2,0.38,1.74,1.43,enough cells to score,inactive
Tardbp,-0.94,1.38,1.45,enough cells to score,inactive
Gmfg,,1.8,1.31,fewer than 50 cells per well; well left out of scoring,inactive
Abcg5,-0.01,1.6,1.63,enough cells to score,inactive
Ctsh,0.36,1.59,1.37,enough cells to score,inactive
Pxylp1,-0.15,1.41,1.41,enough cells to score,inactive
Rasip1,1.91,1.62,1.43,enough cells to score,inactive
Cdh23,-0.87,1.31,1.3,enough cells to score,inactive
Vstm4,0.05,1.47,1.4,enough cells to score,inactive
